Data as given in PubChem BioAssay AID1224831 (NIAID, 2016)

Assay: 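Retesting screen hits on the TLR4-driven TNF response with six separate siRNAs each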 (follow-up of hits)
System: human THP-1 B5 monocytic leukaemia cells carrying a TNF promoter luciferase reporter, made macrophage-like with PMA
Reagents: single siRNA against human genes, 50 nM
Timing: about 68 h of knock-down, then 4 h LPS
Conditions: LPS (Salmonella minnesota, TLR-grade) at 10 ng/ml for 4 h; PMA 5 ng/ml present during knock-down
Measured: 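Firefly to renilla luciferase ratio of a TNF promoter reporter after 4 h LPS, scaled to plate median, turned into robust z-score, averaged over replicates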
Scale: TNF reporter z-score: higher = stronger LPS-induced TNF reporter signal; z-score, median over gene's siRNAs: higher = stronger TNF reporter signal across the gene's siRNAs
Call rule: 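Two-sided call: reduced or raised TNF reporter signal counts as active once mean z reaches about -1 or below, or about 1.5 or above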
Meaning of the calls: active = changed TNF reporter (either direction); inactive = little change
The whole screen tested about 3,500 reagents; below is an unselected part. 731 of all reagents (21%) count as active. 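Active means either lowered or raised reporter signal; the gene-median score did not drive the per-siRNA calls.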 Unmarked entries are inactive. Reagents against one gene are numbered here.

The opening 6 records, to show the layout:
| Gene | reagent no. | TNF reporter z-score, replicate mean | z-score, median over gene's siRNAs |
| --- | --- | --- | --- |
| ZNF319 (zinc finger protein 319) | 1 | -0.7 | -0.015 |
| ZNF319 (zinc finger protein 319) | 2 | -0.64 | -0.015 |
| ZNF319 (zinc finger protein 319) | 3 | 0.51 | -0.015 |
| ZNF319 (zinc finger protein 319) | 4 | 0.18 | -0.015 |
| ZNF319 (zinc finger protein 319) | 5 | 1.1 | -0.015 |
| ZNF319 (zinc finger protein 319) | 6 | -0.21 | -0.015 |

The list itself, repeating the preview:
| Gene | reagent no. | TNF reporter z-score, replicate mean | z-score, median over gene's siRNAs |
| --- | --- | --- | --- |
| ZNF319 (zinc finger protein 319) | 1 | -0.7 | -0.015 |
| ZNF319 (zinc finger protein 319) | 2 | -0.64 | -0.015 |
| ZNF319 (zinc finger protein 319) | 3 | 0.51 | -0.015 |
| ZNF319 (zinc finger protein 319) | 4 | 0.18 | -0.015 |
| ZNF319 (zinc finger protein 319) | 5 | 1.1 | -0.015 |
| ZNF319 (zinc finger protein 319) | 6 | -0.21 | -0.015 |
| FNBP1L (formin binding protein 1 like) | 1 | -0.73 | 0.475 |
| FNBP1L (formin binding protein 1 like) | 2 | 0.79 | 0.475 |
| FNBP1L (formin binding protein 1 like) | 3 | 0.16 | 0.475 |
| FNBP1L (formin binding protein 1 like) | 4 | 1.15 | 0.475 |
| FNBP1L (formin binding protein 1 like) | 5 | 2.08 (active) | 0.475 |
| FNBP1L (formin binding protein 1 like) | 6 | 0.16 | 0.475 |
| CASKIN1 (CASK interacting protein 1) | 1 | 0.98 | 0.87 |
| CASKIN1 (CASK interacting protein 1) | 2 | 0.76 | 0.87 |
| CASKIN1 (CASK interacting protein 1) | 3 | 1.54 (active) | 0.87 |
| CASKIN1 (CASK interacting protein 1) | 4 | -0.27 | 0.87 |
| CASKIN1 (CASK interacting protein 1) | 5 | 3.02 (active) | 0.87 |
| CASKIN1 (CASK interacting protein 1) | 6 | 0.67 | 0.87 |
| HMGN5 (high mobility group nucleosome binding domain 5) | 1 | 0.93 | -0.04 |
| HMGN5 (high mobility group nucleosome binding domain 5) | 2 | -0.66 | -0.04 |
| HMGN5 (high mobility group nucleosome binding domain 5) | 3 | 0.58 | -0.04 |
| HMGN5 (high mobility group nucleosome binding domain 5) | 4 | 1.3 | -0.04 |
| HMGN5 (high mobility group nucleosome binding domain 5) | 5 | -1.1 (active) | -0.04 |
| HMGN5 (high mobility group nucleosome binding domain 5) | 6 | -1.07 (active) | -0.04 |
| STX4 (syntaxin 4) | 1 | -0.14 | 0.62 |
| STX4 (syntaxin 4) | 2 | 0.98 | 0.62 |
| STX4 (syntaxin 4) | 3 | 0.5 | 0.62 |
| STX4 (syntaxin 4) | 4 | 0.74 | 0.62 |
| STX4 (syntaxin 4) | 5 | -0.04 | 0.62 |
| STX4 (syntaxin 4) | 6 | 1.92 (active) | 0.62 |
| DEFA3 (defensin alpha 3) | 1 | 0.72 | 0.335 |
| DEFA3 (defensin alpha 3) | 2 | -0.06 | 0.335 |
| DEFA3 (defensin alpha 3) | 3 | 0.81 | 0.335 |
| DEFA3 (defensin alpha 3) | 4 | 0.42 | 0.335 |
| DEFA3 (defensin alpha 3) | 5 | 0.25 | 0.335 |
| DEFA3 (defensin alpha 3) | 6 | -0.72 | 0.335 |
| PLCXD2 | 1 | 0.04 | -0.185 |
| PLCXD2 | 2 | 0.8 | -0.185 |
| PLCXD2 | 3 | -0.05 | -0.185 |
| PLCXD2 | 4 | -0.32 | -0.185 |
| PLCXD2 | 5 | -0.75 | -0.185 |
| PLCXD2 | 6 | -0.59 | -0.185 |
| MYL1 (myosin light chain 1) | 1 | -1.02 (active) | 0.165 |
| MYL1 (myosin light chain 1) | 2 | 0.04 | 0.165 |
| MYL1 (myosin light chain 1) | 3 | -0.69 | 0.165 |
| MYL1 (myosin light chain 1) | 4 | 1.34 | 0.165 |
| MYL1 (myosin light chain 1) | 5 | 0.29 | 0.165 |
| MYL1 (myosin light chain 1) | 6 | 1.67 (active) | 0.165 |
| HTR6 (5-hydroxytryptamine receptor 6) | 1 | 1.09 | 0.21 |
| HTR6 (5-hydroxytryptamine receptor 6) | 2 | 0.53 | 0.21 |
| HTR6 (5-hydroxytryptamine receptor 6) | 3 | -0.47 | 0.21 |
| HTR6 (5-hydroxytryptamine receptor 6) | 4 | -0.64 | 0.21 |
| HTR6 (5-hydroxytryptamine receptor 6) | 5 | 4.02 (active) | 0.21 |
| HTR6 (5-hydroxytryptamine receptor 6) | 6 | -0.11 | 0.21 |
| MBD3 (methyl-CpG binding domain protein 3) | 1 | 1.55 (active) | 0.255 |
| MBD3 (methyl-CpG binding domain protein 3) | 2 | 0.26 | 0.255 |
| MBD3 (methyl-CpG binding domain protein 3) | 3 | -0.31 | 0.255 |
| MBD3 (methyl-CpG binding domain protein 3) | 4 | 0.25 | 0.255 |
| MBD3 (methyl-CpG binding domain protein 3) | 5 | -1.92 (active) | 0.255 |
| MBD3 (methyl-CpG binding domain protein 3) | 6 | 1.12 | 0.255 |
